Experimental data reported in PubChem BioAssay AID588590 (National Center for Advancing Translational Sciences (NCATS), 2011).
Hit rate of the full screen: of about 390,000 compounds, about 4,000 (1%) were called active. This list was built around the results that the source calls inconclusive (neither active nor inactive); the mix of calls is not that of the screen. The call rests on the fitted dose curve; in most records, active means well fitted inhibition curve with a large enough effect; inconclusive means small, poorly fitted or top-dose-only effect, or another doubt; inactive means no such curve, though single readings can be large or run the other way. Potencies beside an inconclusive call are fits to weak or partial responses and may not hold up.

Amino acid sequences for entries named in this document (tags omitted). A change or cut given only in a name is not applied to a line headed by its entry.
UniProt Q9UNA4: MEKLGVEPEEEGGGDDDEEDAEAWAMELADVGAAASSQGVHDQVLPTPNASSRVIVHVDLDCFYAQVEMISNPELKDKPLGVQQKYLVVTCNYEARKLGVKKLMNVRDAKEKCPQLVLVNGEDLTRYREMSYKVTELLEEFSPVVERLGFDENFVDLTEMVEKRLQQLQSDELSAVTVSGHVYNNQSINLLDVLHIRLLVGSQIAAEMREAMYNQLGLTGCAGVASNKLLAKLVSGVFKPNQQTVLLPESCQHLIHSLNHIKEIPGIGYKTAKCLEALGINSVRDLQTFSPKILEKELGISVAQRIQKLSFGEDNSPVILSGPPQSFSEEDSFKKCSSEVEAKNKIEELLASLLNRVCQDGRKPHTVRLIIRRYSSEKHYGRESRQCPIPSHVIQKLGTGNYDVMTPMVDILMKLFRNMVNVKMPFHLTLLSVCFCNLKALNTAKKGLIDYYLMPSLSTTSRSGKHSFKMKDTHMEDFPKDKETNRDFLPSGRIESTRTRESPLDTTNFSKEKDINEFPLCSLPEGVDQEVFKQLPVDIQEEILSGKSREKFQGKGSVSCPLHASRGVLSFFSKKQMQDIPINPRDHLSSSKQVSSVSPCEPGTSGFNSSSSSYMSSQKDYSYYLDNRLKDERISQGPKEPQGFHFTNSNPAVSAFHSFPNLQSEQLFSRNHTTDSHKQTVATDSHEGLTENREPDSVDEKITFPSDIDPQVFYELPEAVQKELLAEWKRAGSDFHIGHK

target: DNA polymerase iota (Homo sapiens) (UniProt Q9UNA4); experiment: qHTS for Inhibitors of Polymerase Iota; details: Pol iota fluorescent replication assay, 10 min; series mostly up to 115 µM; activity, negative = inhibition: at the top concentration
In short: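 Pol iota at 10 nM preincubated 15 min with compounds at room temperature; reaction started with fluorescent substrate, 50 nM final. Fluorescence read kinetically at 0 and 10 min; buffer-only wells as negative control.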
Potency means the concentration at half of the fitted maximal effect.

How did the Potency turn out when `CC(=O)N=c1sc2nc3ccccc3nc2n1N(C(C)=O)C(C)=O` was run?
The Potency was inconclusive: 10 µM [inhibitor, full curve, poor fit].

`CC1CCCN(C(C(=O)Nc2ccc(C(C)C)cc2)c2ccc3c(c2)OCO3)C1` (stereo not drawn) was tested. Which Potency did it give?
Its Potency is inconclusive: 35.5 µM [inhibitor, partial curve, poor fit].

For `CC(=O)Nc1ccc(NC(=S)NC(=O)C2CC2)cc1`, which Potency is on record?
Its Potency is inconclusive: 100 µM [inhibitor, single point].

For `Cc1ccc(NC(=O)COC(=O)c2cc(=O)c3cc(F)ccc3o2)cc1`, which Potency is on record?
Its Potency is inconclusive: 89.1 µM [inhibitor, single point].

`Cc1ccccc1/C=N/n1c(-c2ccccn2)n[nH]c1=S` was tested. Which Potency did it give?
Its Potency is inconclusive: 20 µM [inhibitor, partial curve, poor fit].

`O=C(COC(=O)c1ccc2c(c1Cl)C(=O)c1ccccc1C2=O)NC1CC1` was tested. Which Potency did it give?
The Potency was inconclusive: 56.2 µM [inhibitor, partial curve, poor fit].

`COc1ccc(C(=O)c2c(C(F)(F)F)oc3c2C(=O)c2ccccc2C3=O)cc1OC` was tested. Which Potency did it give?
Its Potency is inconclusive: 14.1 µM [inhibitor, full curve, poor fit].

How did the Potency turn out when `CCN1CCN(Cc2nnc(-c3ccccc3)o2)CC1` was run?
Its Potency is inconclusive: 5.01 µM [inhibitor, partial curve, poor fit].

`COc1ccc(C(=O)N2CCN(c3ccc(C)cc3)CC2)cc1OC` was tested. Which Potency did it give?
The Potency was inconclusive: 89.1 µM [inhibitor, single point].

How did the “activity, negative = inhibition” value turn out when `CSc1cccc(NC(=O)C2CCCN(S(=O)(=O)c3ccc4c(c3)CCCN4C(C)=O)C2)c1` (stereo not drawn) was run?
Its value is inactive: -4.43%.

With `Cc1nnc(SCc2cccc3ccccc23)s1` as the compound, how does the Potency read?
The Potency was inconclusive: 70.8 µM [inhibitor, partial curve, poor fit].

With `COCc1[nH]nc2c1C(c1ccccc1Cl)C(C#N)=C(N)O2` (stereo not drawn) as the compound, how does the Potency read?
The Potency was inconclusive: 39.8 µM [inhibitor, single point].

With `CC(Oc1ccc(Br)cc1)C(=O)N(Cc1nc(-c2ccccc2)no1)C(C)C` (stereo not drawn) as the compound, how does the “activity, negative = inhibition” value read?
The value was inactive: -1.21%.

How did the “activity, negative = inhibition” value turn out when `Cc1ccccc1OCC(=O)Nc1nnc(S(=O)(=O)N2CCCCCC2)s1` was run?
The value was inactive: -11.4%.

Which “activity, negative = inhibition” value does the source give for `CNC(=S)Nc1cc(C)ccc1OC(F)F` here?
The value was inactive: 26.1%.

How did the Potency turn out when `O=C(Oc1cccc(-c2cnc3ccccc3n2)c1)c1ccco1` was run?
Its Potency is inconclusive: 39.8 µM [inhibitor, full curve].

For `Cc1ccc2cc3cc(C(=O)NCCCN4CCc5ccccc5C4)oc3nc2c1`, which Potency is on record?
The Potency was inconclusive: 39.8 µM [inhibitor, single point].

For `O=C(CSc1ncnc2c1nnn2-c1ccc(F)cc1)NCc1ccco1`, which Potency is on record?
Its Potency is inconclusive: 2 µM [inhibitor, partial curve, poor fit].

With `Cc1ccc(-n2c(-c3cccc(C)c3)nc3c(cnn3-c3ccccc3)c2=O)cc1` as the compound, how does the Potency read?
The Potency was inconclusive: 25.1 µM [inhibitor, single point].

For `O=C(Cn1ncc2c1-c1ccccc1OC2)Nc1ccc(S(=O)(=O)N2CCCCC2)cc1`, which Potency is on record?
The Potency was inconclusive: 11.2 µM [inhibitor, full curve].

With `COc1ccc(-c2nc(CSc3nnc(C)n4c3cc3sccc34)c(C)o2)cc1` as the compound, how does the “activity, negative = inhibition” value read?
The value was inactive: 0.28%.

`COC(=O)c1ccccc1NC(=O)c1sc(=S)n(C)c1N` was tested. Which Potency did it give?
The Potency was inconclusive: 3.16 µM [inhibitor, partial curve, poor fit].

With `COc1ccccc1-c1sc2cc3c(cc2c1-c1ccc(OCCN2CCCCC2)cc1)OCO3` as the compound, how does the Potency read?
The Potency was inconclusive: 4.47 µM [inhibitor, partial curve, poor fit].

`O=C(NCCc1ccco1)C(=O)NCC1OCCCN1S(=O)(=O)c1ccccc1` (stereo not drawn) was tested. Which Potency did it give?
Its Potency is inconclusive: 35.5 µM [inhibitor, partial curve].

With `CCC(C)CCN1C(Nc2ccccc2)=NC[C@@H]1Cc1ccccc1` (stereo partly drawn) as the compound, how does the Potency read?
The Potency was inconclusive: 39.8 µM [inhibitor, single point].

`Cc1cc(C(=O)NCc2ccc(C(=O)O)o2)c(C)o1` was tested. Which Potency did it give?
Its Potency is active: 20 µM.

`CCCc1cc(=O)oc2cc(OCC(=O)Nc3ccccn3)ccc12` was tested. Which Potency did it give?
Its Potency is inconclusive: 89.1 µM [inhibitor, partial curve].

How did the Potency turn out when `Cc1ccc(N2C(=O)CC(Sc3ncccc3C(=O)O)C2=O)cc1` (stereo not drawn) was run?
Its Potency is inconclusive: 89.1 µM [inhibitor, single point].

Which Potency does the source give for `CCC(Oc1ccccc1)C(=O)Nc1ccccc1C(=O)N1CCOCC1` (stereo not drawn) here?
The Potency was inconclusive: 89.1 µM [inhibitor, single point].

How did the Potency turn out when `COc1cc(C2c3cc4c(cc3OC(N3CCCC3)C2C)OCO4)cc(OC)c1O` (stereo not drawn) was run?
The Potency was inconclusive: 89.1 µM [inhibitor, single point].

How did the Potency turn out when `COc1ccc(-c2nn(-c3ccccc3)cc2/C=C2/SC(=S)N(CCC(=O)O)C2=O)cc1` was run?
The Potency was inconclusive: 12.6 µM [inhibitor, partial curve, poor fit].

For `COc1ccc(CC(=O)OC(C)CN2CCCC2)cc1` (stereo not drawn), which Potency is on record?
Its Potency is inconclusive: 14.1 µM [inhibitor, partial curve, poor fit].

Which “activity, negative = inhibition” value does the source give for `COC(=O)C1=C(C)N(Cc2ccco2)C(=O)/C1=C\c1ccc(N(C)C)cc1` here?
Its value is inactive: 14.6%.

Which Potency does the source give for `O=C(O)CN1C(=O)/C(=C\c2cn(-c3ccccc3)nc2-c2ccccc2)SC1=S` here?
Its Potency is inconclusive: 15.8 µM [inhibitor, full curve, poor fit].

For `CC(=O)NC1=NC(=O)/C(=C/c2cc(C)n(-c3ccc(NC(C)=O)cc3)c2C)S1`, which “activity, negative = inhibition” value is on record?
Its value is inactive: -8.3%.

Which Potency does the source give for `CC1=C/C(=C(\c2cc(C)c(O)c(Br)c2)c2ccccc2S(=O)(=O)O)C=C(Br)C1=O` here?
The Potency was inconclusive: 50.1 µM [inhibitor, partial curve, poor fit].

With `O=C(CSc1nnc(COc2ccccc2)n1-c1ccccc1)c1cccs1` as the compound, how does the Potency read?
The Potency was inconclusive: 35.5 µM [inhibitor, single point].

For `Cc1ccc(SCC(=O)NC(=O)NCc2ccco2)c(C)c1`, which Potency is on record?
The Potency was inconclusive: 11.2 µM [inhibitor, partial curve, poor fit].

For `O=C(NCC(c1ccc2c(c1)OCO2)N1CCOCC1)C(=O)Nc1ccc(Cl)cc1` (stereo not drawn), which “activity, negative = inhibition” value is on record?
Its value is inactive: -2.81%.

With `Cc1nn(CC(=O)Nc2ccc(Br)cc2F)c(=O)c2cccn12` as the compound, how does the Potency read?
The Potency was inconclusive: 63.1 µM [inhibitor, partial curve, poor fit].

`CC(=O)C(Sc1ccc2nnc(-c3ccc(F)cc3)n2n1)C(C)=O` was tested. Which Potency did it give?
Its Potency is inconclusive: 50.1 µM [inhibitor, partial curve, poor fit].

How did the Potency turn out when `C(=C\c1ccc2ccccc2n1)/c1ccc2ccccc2n1` was run?
Its Potency is inconclusive: 56.2 µM [inhibitor, partial curve].

With `COC(=O)c1sc(N2C(=O)C(=O)/C(=C(/O)c3ccc(C)cc3)C2c2ccco2)nc1C` (stereo not drawn) as the compound, how does the Potency read?
Its Potency is inconclusive: 35.5 µM [inhibitor, partial curve, poor fit].

`CC(=O)C1=C(C)N=c2s/c(=C/c3ccc4c(c3)OCO4)c(=O)n2C1c1ccc(N(C)C)cc1` (stereo not drawn) was tested. Which Potency did it give?
Its Potency is inconclusive: 35.5 µM [inhibitor, single point].

`CCOC(=O)Cc1csc(SCc2nc3sc4c(c3c(=O)[nH]2)CCC4)n1` was tested. Which Potency did it give?
Its Potency is inconclusive: 14.1 µM [inhibitor, partial curve, poor fit].

How did the “activity, negative = inhibition” value turn out when `CC(C)NC(=O)N(C)C[C@H]1Oc2ccc(NS(=O)(=O)c3ccc(Cl)cc3)cc2CC(=O)N([C@@H](C)CO)C[C@@H]1C` was run?
The value was inactive: 14.9%.

How did the Potency turn out when `O=C(CCS(=O)(=O)c1ccccc1)N1CCCc2ccccc21` was run?
Its Potency is inconclusive: 89.1 µM [inhibitor, single point].

`COc1ccc(C(=O)N2CCOC2CNC(=O)C(=O)NCc2ccccc2Cl)cc1` (stereo not drawn) was tested. Which “activity, negative = inhibition” value did it give?
The value was inactive: 16.2%.

How did the “activity, negative = inhibition” value turn out when `O=c1cc(-c2ccccc2)n2c(SCc3ccc(Br)cc3)nnc2[nH]1` was run?
Its value is inactive: -12.8%.

`O=C(Nc1cccc(Cl)c1)Nc1nccs1` was tested. Which Potency did it give?
The Potency was inconclusive: 89.1 µM [inhibitor, partial curve].

How did the Potency turn out when `Nn1c(SCC(=O)NC2CCCc3ccccc32)nnc1C1CC1` (stereo not drawn) was run?
The Potency was inconclusive: 70.8 µM [inhibitor, partial curve, poor fit].

For `CC1CN(S(=O)(=O)c2cccc(C(=O)OCC(=O)c3cccs3)c2)CC(C)O1` (stereo not drawn), which “activity, negative = inhibition” value is on record?
Its value is inactive: -13.2%.

For `CCOc1ccccc1NC(=O)CSC1=Nc2ccccc2C2=NC(CC(=O)NCc3ccc4c(c3)OCO4)C(=O)N12` (stereo not drawn), which Potency is on record?
The Potency was inconclusive: 100 µM [inhibitor, single point].

How did the “activity, negative = inhibition” value turn out when `COc1cc(-c2oc3cc(O)cc(O)c3c(=O)c2O)ccc1O` was run?
The value was inactive: -11.7%.

How did the Potency turn out when `CCN(Cc1ccccc1)Cc1c(O)ccc2oc(C)c(C(=O)Nc3ccccc3C)c12` was run?
The Potency was inconclusive: 89.1 µM [inhibitor, single point].

`O=C(Nc1ccc(Cl)cc1)c1ccc2snnc2c1` was tested. Which “activity, negative = inhibition” value did it give?
Its value is inactive: 23.2%.

With `Cc1ccccc1CSCC(=O)NC(=O)NCc1ccco1` as the compound, how does the Potency read?
Its Potency is active: 31.6 µM.

For `CCN(C(=O)Cc1ccccc1OC)c1nnc(-c2ccncc2)s1`, which Potency is on record?
The Potency was inconclusive: 112 µM [inhibitor, partial curve, poor fit].

How did the Potency turn out when `Cc1ccc(S(=O)(=O)NCC(c2ccc(N(C)C)cc2)N2CCc3ccccc32)cc1` (stereo not drawn) was run?
Its Potency is inconclusive: 89.1 µM [inhibitor, single point].

Which Potency does the source give for `CCCCSCCCNC(=O)c1c[nH]c2ccc(S(=O)(=O)Nc3cccc(OC)c3)cc2c1=O` here?
The Potency was inconclusive: 44.7 µM [inhibitor, partial curve].

With `Cc1ccc(S(=O)(=O)NCC(Nc2cccc(Cl)c2)c2ccccc2)cc1` (stereo not drawn) as the compound, how does the Potency read?
The Potency was inconclusive: 56.2 µM [inhibitor, partial curve, poor fit].

`COc1cc(C2C(C#N)=C(N)Oc3cc(C)oc(=O)c32)cc2c1OCO2` (stereo not drawn) was tested. Which Potency did it give?
Its Potency is inconclusive: 15.8 µM [inhibitor, full curve, poor fit].

For `Cc1ccc(CNC(=O)c2ccc(N3CCC4(CC3)CC(c3ccccc3)=NO4)c(NC(=O)c3ccccc3)c2)cc1`, which Potency is on record?
The Potency was inconclusive: 39.8 µM [inhibitor, single point].
